Assay results published in PubChem BioAssay AID588499 (NMMLSC, 2011).
Screen size: about 360,000 compounds; about 610 (0.17%) were called active. Inconclusive means that the source gave no clear call. Such entries were picked first, then a sample of the others. Cut-off read from the data, not from the text of the source: active = inhibition above about 30%; inconclusive = no clear call, values can overlap the other calls; inactive = below that.

The compounds below were run on Botulinum neurotoxin type A light chain protease (Clostridium botulinum A str. ATCC 3502) (assay: blockers of BoNT/A LC substrate cleavage – biochemical, flow cytometry, MLPCN library, primary screen (AID 588499; note: plate controls were buffer without enzyme for full effect and enzyme alone for no effect)). Settings: multiplex microsphere protease substrate cleavage, at 10 µM, hits give high values.

SMILES | inhibition
O=C(NCc1ccc2c(c1)OCO2)c1cccc(S(=O)(=O)N2CCCCC2)c1 | inconclusive: -3.8%
Cc1cc(C(=O)OCC(=O)Nc2cc(C)on2)c2ccccc2n1 | inconclusive: -2.4%
Cc1ccc2[nH]c(=O)c(CN(CCCN(C)C)C(=O)Nc3cccc(Cl)c3)cc2c1 | inconclusive: 3.2%
Cc1ccc(-c2nn(-c3ccccc3)cc2C(=O)NC2CCC(O)CC2)cc1 (configuration not stated) | inconclusive: -23.3%
CC1CN(c2nc3ccccc3nc2C(C#N)C(=O)OC2CCCCC2)CC(C)O1 (configuration not stated) | inconclusive: 10.5%
CCOC(=O)c1[nH]c(Cc2[nH]c(C(=O)OCC)c(C)c2CCC(=O)OC)c(CCC(=O)OC)c1C | inconclusive: -0.5%
Nc1c(S(=O)(=O)c2ccccc2)c2nc3ccccc3nc2n1/N=C/c1ccco1 | inconclusive: 1.3%
CCCN(CCC)CCNC(=O)C(NS(=O)(=O)c1ccc2c(c1)CCC(=O)N2)c1ccccc1 (configuration not stated) | inactive: -1.7%
CCOC(=O)C1CCN(c2c(NCCCN(CC)c3ccccc3)c(=O)c2=O)CC1 | inconclusive: -3.5%
CCC(CC)C(=O)c1c[nH]c(C(=O)NCCCn2ccnc2)c1 | inconclusive: -0.4%
CCn1c(SCC(=O)c2c[nH]c3ccccc23)nc2cc(S(=O)(=O)N3CCOCC3)ccc21 | active: 48.9%
Cc1c(C(=O)N2CCN(c3ccccc3F)CC2)sc2nc(-c3ccccc3)cn12 | inconclusive: 2.6%
CCOc1ccc(C(=S)NC2CCCCC2)cc1 | inconclusive: 4.2%
CC(C)(C)c1cccc(C2(O)C(=O)c3ccccc3C2=O)c1O | inconclusive: -1.6%
COc1cccc(Nc2cc(C)nc3ccccc23)c1 | inconclusive: 0.7%
CCOC(=O)c1ccccc1NC(=O)c1ccccc1NS(C)(=O)=O | inactive: -0.1%
COc1ccc(-c2nnnn2C)cc1S(=O)(=O)NCCc1ccccc1 | inconclusive: 2.4%
COc1ccc(C(=O)Nn2c(SCc3ccc([N+](=O)[O-])cc3)nc3ccccc3c2=O)cc1 | inactive: -0.4%
Cc1nc(-c2ccccc2)[nH]c(=O)c1Oc1ccc(Cl)cc1Cl | inconclusive: -12.5%

SMILES | inhibition
Cc1nc2ccccn2c1-c1ccnc(=S)[nH]1 | inconclusive: 15.3%
CCN(CC)c1ccc(/C=N\NC(=O)c2cccc3cc[nH]c23)cc1 | inconclusive: 2.1%
COC(=O)c1cccc(NC(=O)c2nn(C(C)C)c(=O)c3ccccc23)c1 | inconclusive: -5.9%
Cc1nc2sc(C(=O)O)c(N)c2c2c1COC(C)(C)C2 | inactive: 2.6%
CCOC(=O)C(=O)Nc1ccccc1C(=O)OCC | inactive: -2%
COc1cc(CN2CCNC(=O)C2CC(=O)N(C)CCC2CCOCC2)cc(OC)c1 (configuration not stated) | inactive: 1.2%
COCCn1c(SCC(=O)Nc2ccc(S(=O)(=O)N3CCOCC3)cc2)nc2ccccc21 | inconclusive: -3.3%
O=C(CCC(=O)NC1CCCCCC1)Nc1nnc(C(F)(F)F)s1 | inconclusive: 4.4%
CC(C)Cc1nc2oc3c(NCC4CCCO4)ncnc3c2c2c1CCC2 (configuration not stated) | inconclusive: 3.6%
O=C(COc1ccc2ccccc2c1Br)Nc1ncn[nH]1 | inactive: 3.8%
CC(CN1CCOCC1)OC(=O)c1ccccc1 (configuration not stated) | inconclusive: 0%
CN(CCOc1ccc(Cl)cc1)C(=O)c1ccc2c(=O)n3c(nc2c1)CCC3 | inconclusive: 0.5%
COc1cccc(C(=O)Nc2ncc3c(n2)CC(c2ccc(OC)cc2OC)CC3=O)c1 (configuration not stated) | inconclusive: -2.4%
COCCC(=O)N1CCCC(C(=O)c2ccc3c4c(cccc24)CC3)C1 (configuration not stated) | inactive: -0.2%
CC(=O)c1nnn(-c2c(F)cccc2F)c1C | inconclusive: 4.1%
COc1ccccc1NC(=O)Nc1ccccc1C(=O)NCCCN1CCOCC1 | inconclusive: -4.4%
COc1ccc(NC(C)C(=O)Nc2ccc(C#N)cc2)cc1Cl (configuration not stated) | inconclusive: -2%
CSCCC(NC(=O)c1ccccc1Br)C(=O)N1CCN(C/C=C/c2ccccc2)CC1 (configuration not stated) | inactive: -0.1%
CCN1CCN(C(C(=O)NC2CCCCC2)c2ccnc3ccccc23)CC1 (configuration not stated) | inactive: -0.1%

Three successive entries already listed:
SMILES | inhibition
CC1CN(c2nc3ccccc3nc2C(C#N)C(=O)OC2CCCCC2)CC(C)O1 (configuration not stated) | inconclusive: 10.5%
CCOC(=O)c1[nH]c(Cc2[nH]c(C(=O)OCC)c(C)c2CCC(=O)OC)c(CCC(=O)OC)c1C | inconclusive: -0.5%
Nc1c(S(=O)(=O)c2ccccc2)c2nc3ccccc3nc2n1/N=C/c1ccco1 | inconclusive: 1.3%

Next results follow.

SMILES | inhibition
Cc1csc(N/N=C/c2ccc([N+](=O)[O-])cc2)n1 | inconclusive: 6.7%
CCOC(=O)/C(=C\c1cccc(O)c1)c1nc2sc(C)c(C)c2c(=O)[nH]1 | inactive: -0.2%
CCN(c1ccccc1)c1nc2nonc2nc1NCCO | inconclusive: 13.4%
Cn1nc(C(C)(C)C)cc1NC(=O)C1(C)CCN1C(=O)CC(c1ccccc1)c1ccccc1 (configuration not stated) | inactive: -0.2%
CCC1(NC(C)=O)CC2CC1CC2NC(C)=O (configuration not stated) | inconclusive: 3.7%
COc1ccc2ccc3c(c2c1)N=C[C@]1(O3)N(C)c2ccccc2C1(C)C | inactive: 0.3%
Cn1cc(CNC(=O)C2CCC(=O)N(Cc3ccc(Cl)cc3)C2)cn1 (configuration not stated) | inactive: 0.1%
C=CCn1cnc2c(c1=O)c1nc3ccccc3nc1n2/N=C/c1cccc(OC)c1 | inconclusive: 9.3%
CC(C)N1CCc2c(sc(NC(=S)NC(=O)c3ccccc3)c2C#N)C1 | active: 32.2%
N=c1c2c(-c3ccccc3)c(-c3ccccc3)n(Cc3ccco3)c2ncn1CCCN1CCOCC1 | inactive: -0.3%
O=C(O)c1cccc2c1NC(C(=O)O)C1CC(Sc3ccccc3[N+](=O)[O-])C(Cl)C21 (configuration not stated) | inconclusive: 0.6%
Cc1cc2ncn(S(=O)(=O)c3ccc(S(=O)(=O)N4CCOCC4)cc3)c2cc1C | inconclusive: 0.1%
CCOc1ccc(OCC)c(NC(=O)C2CCN(c3ncccn3)CC2)c1 | inconclusive: -2%
COC(=O)c1cc(C(=O)Nc2ccc(C)cn2)cc([N+](=O)[O-])c1 | inconclusive: -0.8%
N#C/C(=C\c1ccc(F)cc1)C(=O)Nc1ccccn1 | inactive: 1.3%
CCOc1ccc(C2=Nn3c(nnc3-c3cccnc3)SC2)cc1 | inconclusive: 2.7%
CCCCC(=O)N1CCCC(C(=O)OCC)C1 (configuration not stated) | inactive: -0.6%
C=CCNC(=S)NNC(=O)c1cccn(Cc2ccc(Cl)cc2)c1=O | inconclusive: 2.8%
N#CC(c1ccccc1)C(CC(=NO)c1ccccc1)c1ccccc1 (configuration not stated) | inactive: -0.2%
